From the supplement of paper PMC10338343
± gives the standard deviation. The list shows a part of the results, in another mix than the full data. Many entries were measured with a wide error.

Key:
[1] = tested on: MILI (PIWIL2) piRISC loaded with L1MC piRNA (26 nt); test: pre-steady-state target cleavage rate (min^-1); MIWI and MILI are mouse PIWI proteins and EfPiwi is from a freshwater sponge; tags in brackets are library labels; higher = faster piRNA-guided slicing of the target; conditions: guide: L1MC piRNA 5'p-UAACUAAAUACUAUGCAAGCUGUAGG
Outline: (§1)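 In Cleave-'n-Seq, a transcribed, DNA-blocked target RNA library (0.1 nM) was combined with 1 nM active affinity-purified piRISC bearing one synthetic guide, with or without 500 nM GTSF1 partner protein. Reactions ran in HEPES–potassium acetate buffer at 33 °C for 0–8 or 0–960 min. Uncleaved targets were sequenced and normalised to depth and to weakly complementary targets, three trials were pooled, and k3 was capped at 0.0001 min^-1. The pre-steady-state cleavage rate was obtained by fitting a burst-and-steady-state model.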

[2] = tested on: MIWI (PIWIL1) piRISC loaded with L1MC piRNA (30 nt); test: as above; conditions: guide: L1MC piRNA 5'p-UAACUAAAUACUAUGCAAGCUGUAGGUCCU
Outline: as §1

[3] = auxiliary factor: 500 nM mouse GTSF1
[4] = auxiliary factor: none (no GTSF1)

Sequence | pre-steady-state target cleavage rate [1, 3] | pre-steady-state target cleavage rate [1, 4] | pre-steady-state target cleavage rate [2, 3] | pre-steady-state target cleavage rate [2, 4]
UCCUGGAUGAGCUUGCAUAGUAAAAACAAA | 0.00142 ± 0.0077 | 0.00018 ± 0.021 | 0.000655 ± 0.018 | 0.000341 ± 0.013
UCCUGGAUGUCCUUGCAUAGUAUUUACUAA | – | 0.000853 ± 0.0054 | – | 0.00123 ± 0.0046
UCCUGGAUGUCGUUCGAUAGUAUUUAGUUA | 0.00099 ± 0.0095 | 0.000388 ± 0.013 | 0.00016 ± 0.064 | 0.000461 ± 0.013
UCCUGGAUGUCGAAGCAUAGUAUUUAGUAUA | 0.0394 ± 0.0091 | 0.00232 ± 0.003 | 0.00163 ± 0.0077 | 0.00127 ± 0.0064
UCCUGGAUGUGCUUGGAUAGUAUUUACUUA | 0.000445 ± 0.023 | 0.000141 ± 0.045 | 0.000665 ± 0.015 | 0.000806 ± 0.011
UCCUGGAUGUCGAUGCAUUGUUUUUAGUUA | 0.000564 ± 0.013 | 0.00073 ± 0.009 | 0.000223 ± 0.037 | 0.000432 ± 0.013
UCCUGGAUGUCGAACGUAUCUUUUUUGUUA | 0.000148 ± 0.04 | 0.000173 ± 0.027 | 0.000175 ± 0.028 | 0.000129 ± 0.032
UCCUGGAUGUGCUUGCUAUGUAUUUAGUAA | 0.00203 ± 0.0054 | 0.00161 ± 0.0045 | 0.00114 ± 0.0092 | 0.00133 ± 0.0051
UCCUGGAUGUGCUUGCUAUCAUAAAUCAAA [g15:g20:cont:t1A] | 0.000461 ± 0.019 | 0.000352 ± 0.014 | 0.000879 ± 0.012 | 0.000765 ± 0.0089
UCCUGGAUGAGCUUGGUUAGUAUUUACAAA | 0.00156 ± 0.0073 | 0.00105 ± 0.0071 | 0.000389 ± 0.026 | 0.00072 ± 0.01
UCCUGGAUGUCGAUGCAUUGUAUUUUGUUA | 0.00184 ± 0.007 | 0.00045 ± 0.014 | 0.000194 ± 0.045 | 0.000351 ± 0.02
UCCUGGAUGAGCUUGCAUACAAUUUAGUUA | 0.00171 ± 0.0058 | 0.00149 ± 0.0035 | 0.00302 ± 0.0041 | 0.00113 ± 0.0037
UCCUCCAACAGCUUGCAUAGUAUUUUCAAA | – | 0.00125 ± 0.0039 | – | 0.00154 ± 0.0036
UCCUGGAUCACCUUGCAUAGUAUUUUCAAA | – | 0.00121 ± 0.0056 | – | 0.00142 ± 0.003
UCCUGGAUGUCGAACCAUAGUAAAAAGUUA | – | < 0.0001 | – | 0.000222 ± 0.031
UCCUGGAUGUCCUUGCAUAUGUAUUUAGUUA | 0.00374 ± 0.004 | 0.00205 ± 0.0037 | 0.0019 ± 0.0059 | 0.00127 ± 0.0067
UCCUGGAUGUCGAAGCUAAGUAUUUAGUUA | 0.000696 ± 0.011 | 0.000314 ± 0.012 | 0.000381 ± 0.021 | 0.00059 ± 0.0078
UCCUGGAUGUCGUUGCAUUGUUUUUAGUUA | 0.0014 ± 0.01 | 0.00305 ± 0.0041 | 0.000128 ± 0.09 | 0.000342 ± 0.022
UCCUGGAUGUCCUUGCUAGUAUUUAGUUA | 0.00201 ± 0.0052 | 0.000762 ± 0.0067 | 0.00298 ± 0.0047 | 0.00105 ± 0.0052
UCCUGGAUCAGCUUGCAUAGUUUUAGUUA | 0.00374 ± 0.0036 | 0.00156 ± 0.0037 | 0.00262 ± 0.0043 | 0.00157 ± 0.0032

Quoted from the listing.
Value of UCCUGGAUGUCGAUGCAUUGUAUUUUGUUA under pre-steady-state target cleavage rate [2, 3]: 0.000194 ± 0.045
Value of UCCUGGAUGUGCUUGCUAUGUAUUUAGUAA under pre-steady-state target cleavage rate [2, 4]: 0.00133 ± 0.0051
